According to publication PMC7822076:
These are yes or no findings as the source states them, for the method shown. Binding seen in cells or lysates may run through a third protein. Some results given as binding are weak or reduced against the parent protein; the word gives no strength.

Chains of the proteins cited; added tags and fusions are not shown. Lines headed by an entry give the natural chain unless they say otherwise; changes in a name come on top.
UniProt Q06609: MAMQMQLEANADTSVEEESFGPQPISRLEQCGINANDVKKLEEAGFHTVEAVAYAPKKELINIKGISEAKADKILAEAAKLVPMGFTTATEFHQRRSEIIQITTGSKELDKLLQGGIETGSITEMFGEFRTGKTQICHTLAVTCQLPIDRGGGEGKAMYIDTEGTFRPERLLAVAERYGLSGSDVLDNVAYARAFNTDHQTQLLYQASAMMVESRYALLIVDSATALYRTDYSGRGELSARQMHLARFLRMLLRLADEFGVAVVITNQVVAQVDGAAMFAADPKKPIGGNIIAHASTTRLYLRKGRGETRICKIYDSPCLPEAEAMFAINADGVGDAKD
UniProt P06748: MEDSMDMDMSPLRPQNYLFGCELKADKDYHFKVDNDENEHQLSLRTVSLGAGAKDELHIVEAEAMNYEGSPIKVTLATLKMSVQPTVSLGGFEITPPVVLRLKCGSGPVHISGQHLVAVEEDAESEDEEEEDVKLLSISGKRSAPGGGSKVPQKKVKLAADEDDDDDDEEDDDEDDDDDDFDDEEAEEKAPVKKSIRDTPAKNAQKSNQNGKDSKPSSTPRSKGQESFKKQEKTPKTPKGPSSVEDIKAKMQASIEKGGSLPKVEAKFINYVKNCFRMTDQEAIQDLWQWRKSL

Molecular target: RAD51 (human (endogenous in HEK293)) (UniProt Q06609)
Assay: co-IP; as a1 but unirradiated cells (0 Gy, no YTR107); IP with RAD51 antibody, blot with FLAG antibody

binding: binds weakly
Substance: chimeric GFP/FLAG/NPM1 protein (nucleophosmin1) (from UniProt P06748 1-294)
